{"source": "patent US9220775B2", "about": "“Binding molecules specific for HER3 and uses thereof” (Medlmmune LLC, priority 2011, dated 2015)", "test_system": "LoVo xenografts", "assay": "LoVo xenograft, 2C2-YTE and selumetinib combination", "format": "in vivo, mouse", "conditions": "selumetinib 75 mg/kg, 2C2-YTE 30 mg/kg", "note": "At least one compound was matched to its structure with a doubt left.", "data": [{"smiles": "Cn1cnc2c(F)c(Nc3ccc(Br)cc3Cl)c(C(=O)NOCCO)cc21", "note": "[selumetinib]", "values": [{"measurement": "phospho-HER3 in tumor extracts", "value": "increase in phospho-HER3"}]}]}
